{
  "source": "patent US20170095512A1",
  "about": "“METHODS OF INDUCING MYELINATION AND MATURATION OF OLIGODENDROCYTES” (KADIMASTEM LTD., priority 2014, published 2017)",
  "assay_type_in_all_cases": "cell-based",
  "key": {"[1]": {"system": "hPSC derived oligodendrocytes co-cultured with rodent dorsal root ganglia neurons (MBP+ cells)", "experiment": "Co-culture myelination assay (human oligodendrocytes with DRG neurons), MBP staining", "procedure": "ArrayScan VTI HCS reader system (Cellomis, Thermo-scientific) was used for scanning at least 20 fields for each tested well under 10× objective in both assays (differentiation and myelination). Cellomics Neural profiling bio-application was used for processing and analyzing the images. For differentiation assay, the following parameters were tested: number and percentage of O4+ cells, number of processes, processes length and number of branching points. For myelination assay, the same morphological parameters were tested and in addition: areas of myelinated axons in pixels (MBP&NF overlap area) and Number of myelinated regions (MBP&NF overlap count) were also analyzed. Modifications in the Neuro-profiling bio-application were conducted for this specific purpose. T-test analysis was used to compare between treatments. The 4-parameter Hill-Slope curve fittings were generated by GraphPad Prism software using least squares fitting method and EC50 values were calculated. […]\nFor testing maturation and myelination capacity of the hPSC derived oligodendrocytes, a co-culture system between rodent dorsal root ganglia (DRGs) and hPSCs derived oligodendrocytes was used. The number of MBP+ cells (MBP, a marker of oligodendrocytes' myelin) and Myelin formation (measured by co-localization area between MBP and neurofilament positive neuronal axons) was quantified."}, "[2]": {"system": "glial progenitor cells derived from human ES cells (Olig2 positive cells)", "experiment": "hOPC differentiation assay, Olig2 positive cells (immunostaining, high content screening)", "procedure": "In order to initiate differentiation 20,000 GPCs were seeded in each well of Matrigel coated plates of 96 wells, or on PolyD-Lysine/laminin (PDL/lam)-coated 96 well plates. Cells were grown in GM media for two to three days. Then GM was replaced by differentiation medium without growth factors, (DMEM/F12, 1% B27, 0.5% N2, Vitamin C (Sigma, 50 ug/ml). Differentiation medium was supplemented with the following tested compounds: […] All media were replaced every other day. The oligodendrocyte lineage cells were characterized by the expression of a transcription factor olig2. The rabbit polyclonal AB anti olig2 (Millipore cat AB9610) was added to PFA fixed cells. […] ArrayScan VTI HCS reader system (Cellomis, Thermo-scientific) was used for scanning at least 20 fields for each tested well under 10× objective in both assays (differentiation and myelination). […] For myelination assay, the same morphological parameters were tested and in addition: areas of myelinated axons in pixels (MBP&NF overlap area) and Number of myelinated regions (MBP&NF overlap count) were also analyzed. […] The 4-parameter Hill-Slope curve fittings were generated by GraphPad Prism software using least squares fitting method and EC50 values were calculated. […] Time points used for analysis are 21, 28, 35 and 42 days of differentiation, for each time point 20 fields were analyzed. […]"}, "[3]": {"system": "human OPC derived from ES cells (O4+ cells)", "experiment": "hOPC differentiation assay, O4+ cells (immunostaining, high content screening)", "conditions": "day 21; Noggin 50 ng/ml + PDGF 20 ng/ml; Dorsomorphin 2 μM; LDN-193189 125 nM", "procedure": "In order to initiate differentiation 20,000 GPCs were seeded in each well of Matrigel coated plates of 96 wells, or on PolyD-Lysine/laminin (PDL/lam)-coated 96 well plates. Cells were grown in GM media for two to three days. Then GM was replaced by differentiation medium without growth factors, (DMEM/F12, 1% B27, 0.5% N2, Vitamin C (Sigma, 50 ug/ml). Differentiation medium was supplemented with the following tested compounds: […] All media were replaced every other day. Oligodendrocytes were characterized by the presence of the antigen detected by the monoclonal antibody O4 (IgM (R&D). Living cells reacted with O4 antibody diluted 1/200 in medium without growth factors (50 ul/well) and left for 40 minutes in the incubator at 37° C., washed once with GM, fixed with PFA 4% (170 ul per well) for 20 minutes at room temperature, washed 3 times with PBS. […] ArrayScan VTI HCS reader system (Cellomis, Thermo-scientific) was used for scanning at least 20 fields for each tested well under 10× objective in both assays (differentiation and myelination). […] For myelination assay, the same morphological parameters were tested and in addition: areas of myelinated axons in pixels (MBP&NF overlap area) and Number of myelinated regions (MBP&NF overlap count) were also analyzed. […]"}},
  "note": "Entries after “also recorded” stand apart in the source; their conditions may differ. At least one structure is not confirmed: it was looked up by name or label, or the drawing left a doubt.",
  "data": [
    {"smiles": "c1cc(-c2cnn3cc(-c4ccc(OCCN5CCCCC5)cc4)cnc23)ccn1", "note": "[Dorsomorphin]", "values": [
      {"measurement": "MBP+ cells number / differentiation into MBP+ cells (summary statement)", "setting": "[1]", "result": "abolished the differentiation into MBP+ cells"},
      {"measurement": "Olig2+ cells number / differentiation (summary statement)", "setting": "[2]", "result": "strongly inhibit Olig2+ cells differentiation; also recorded: strongly inhibits the differentiation of olig2 cells"},
      {"measurement": "number of O4+ cells", "setting": "[3]", "result": "abolished hOPC differentiation"}
    ]}
  ]
}
